Record: PubChem BioAssay AID602203 (INSERM, 2012)
Aim: 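Confirming genes that raise or lower cisplatin-induced death in A549 cells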 (follow-up of hits). Cells: human A549 lung cancer cells. Reagents: siRNA pair against human genes. Conditions: cisplatin at a dose killing half of control-siRNA cells, given 48 h after transfection. Read-out: 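Two siRNAs per gene scored +1 protective, -1 sensitizing, 0 if toxic by LDH or growth-reducing by WST-1; cisplatin given 48 h later at 50% control kill; scores summed, mean death shift versus control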. Reading the numbers: summed siRNA score for cisplatin death: higher = more siRNAs reduced cisplatin-induced cell death; change in cisplatin death versus control: higher = fewer cells died than in control. Rule for the call: In these data the active calls have summed siRNA score for cisplatin death at about -3 or lower, or at about 3 or higher.
The deposit covers 999 reagents; shown is an unselected part. 85 of all reagents (8.5%) count as active. 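Unclear how single-siRNA scores of -1, 0 or +1 give the printed -4 to 4 range; calls lie near -3 or 3 and beyond.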 Not given: the amount of reagent, the time to read-out, the dose of the treatment.

target gene	summed siRNA score for cisplatin death	change in cisplatin death versus control (percentage points)	call
MUL1 (GeneID 79594)	1		inactive
BIRC6 (GeneID 57448)	-2		inactive
ATRNL1 (GeneID 26033)	-1		inactive
GPATCH2L (GeneID 55668)	1		inactive
NUCB2 (GeneID 4925)	0		inactive
LOC440155	1		inactive
CAPN7 (GeneID 23473)	-1		inactive
CNOT7 (GeneID 29883)	0		inactive
SPEM2 (GeneID 201243)	-1		inactive
CASP1 (GeneID 834)	-2		inactive
LRRN2 (GeneID 10446)	2		inactive
NOP16 (GeneID 51491)	1		inactive
SOX11 (GeneID 6664)	-1		inactive
RSPH9 (GeneID 221421)	0		inactive
LOC146110	0		inactive
MPV17 (GeneID 4358)	-2		inactive
PTGES (GeneID 9536)	1		inactive
TRPV6 (GeneID 55503)	1		inactive
STK26 (GeneID 51765)	1		inactive
CREBL2 (GeneID 1389)	0		inactive
PPM1B (GeneID 5495)	-3	-4.3	active
DDN (GeneID 23109)	1		inactive
CDC6 (GeneID 990)	-1		inactive
LPL (GeneID 4023)	0		inactive
HSDL2 (GeneID 84263)	1		inactive
CSNK1D (GeneID 1453)	-1		inactive
CBLB (GeneID 868)	2		inactive
LINC02875 (GeneID 388407)	1		inactive
RUVBL1 (GeneID 8607)	-2		inactive
P2RX2 (GeneID 22953)	0		inactive
FLJ25339	-2		inactive
DNMT3L (GeneID 29947)	-1		inactive
HNF4G (GeneID 3174)	-1		inactive
FBXW11 (GeneID 23291)	1		inactive
CYP11B2 (GeneID 1585)	-3	-12.8	active
LOC441969	1		inactive
CEP135 (GeneID 9662)	0		inactive
LOC442001	-2		inactive
GINS3 (GeneID 64785)	-2		inactive
CDC45 (GeneID 8318)	0		inactive
PRSS21 (GeneID 10942)	-3	-9.37	active
STX1A (GeneID 6804)	-1		inactive
TMEM161B (GeneID 153396)	-1		inactive
NEDD8 (GeneID 4738)	-2		inactive
LRP6 (GeneID 4040)	0		inactive
LRRC57 (GeneID 255252)	0		inactive
SLC16A9 (GeneID 220963)	1		inactive
ABCA1 (GeneID 19)	-1		inactive

The list goes on (4 carried over from the part before).
target gene	summed siRNA score for cisplatin death	change in cisplatin death versus control (percentage points)	call
LRP6 (GeneID 4040)	0		inactive
LRRC57 (GeneID 255252)	0		inactive
SLC16A9 (GeneID 220963)	1		inactive
ABCA1 (GeneID 19)	-1		inactive
FBXO6 (GeneID 26270)	-1		inactive
SEMG2 (GeneID 6407)	-3	-10.6	active
DHRSX (GeneID 207063)	3	10.6	active
AKR7A3 (GeneID 22977)	-1		inactive
SLC9A7 (GeneID 84679)	0		inactive
USP48 (GeneID 84196)	1		inactive
EDARADD (GeneID 128178)	2		inactive
MARCKSL1 (GeneID 65108)	0		inactive
SEC23IP (GeneID 11196)	1		inactive
GSTM1 (GeneID 2944)	0		inactive
ZFP36L1 (GeneID 677)	2		inactive
PHB1 (GeneID 5245)	-1		inactive
PPIG (GeneID 9360)	-2		inactive
PAX3 (GeneID 5077)	0		inactive
LOC442175	0		inactive
GP1BB (GeneID 2812)	1		inactive
HLA-E (GeneID 3133)	0		inactive
MGC48637	0		inactive
GGA1 (GeneID 26088)	-2		inactive
FOXD4 (GeneID 2298)	0		inactive
CSF3R (GeneID 1441)	-1		inactive
KRT10 (GeneID 3858)	2		inactive
ASCL2 (GeneID 430)	1		inactive
NOVA1 (GeneID 4857)	-1		inactive
LAD1 (GeneID 3898)	1		inactive
MTMR4 (GeneID 9110)	0		inactive
TCFL5 (GeneID 10732)	-1		inactive
LOC442606	-1		inactive
LOC388284	0		inactive
MARVELD3 (GeneID 91862)	-1		inactive
SLC6A5 (GeneID 9152)	0		inactive
OR2T12 (GeneID 127064)	0		inactive
LOC390533	-3	-9.25	active
ZNF572 (GeneID 137209)	-1		inactive
KCNG4 (GeneID 93107)	1		inactive
LINC01011 (GeneID 401232)	2		inactive
SRP72 (GeneID 6731)	-1		inactive
AMZ2 (GeneID 51321)	-2		inactive
SLC25A36 (GeneID 55186)	0		inactive
FOXD2 (GeneID 2306)	1		inactive
LOC442386	1		inactive
LCE1C (GeneID 353133)	1		inactive
OR2D2 (GeneID 120776)	0		inactive
GLB1 (GeneID 2720)	-1		inactive
KRT27 (GeneID 342574)	2		inactive
MMP25 (GeneID 64386)	0		inactive
NEXMIF (GeneID 340533)	0		inactive
LOC441759	2		inactive
LOC339997	1		inactive
GLE1 (GeneID 2733)	1		inactive
DNAJC18 (GeneID 202052)	0		inactive
RCL1 (GeneID 10171)	-1		inactive
LOC401860	0		inactive
FN3KRP (GeneID 79672)	3	9.76	active
NECAP2 (GeneID 55707)	-2		inactive
DNER (GeneID 92737)	1		inactive
CD93 (GeneID 22918)	-2		inactive
BACH2 (GeneID 60468)	-1		inactive
ABCA9 (GeneID 10350)	0		inactive
